Source: PubChem BioAssay AID1508597 (Cure First, 2020)
Shown is an unselected part of the about 2,100 reagents, in one setting of the screen. 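Calls flag viability under 80% in either arm, not effects specific to rucaparib; the reference for percent is not stated.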 A reagent listed more than once was tested more than once; the source does not tell the runs apart. No sequences are given here. Not given: the 100% reference.

Aim: 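Genes whose silencing sensitises or protects ovarian cancer cells against rucaparib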 (primary screen)
Cells: human ovarian carcinoma lines grown from tumours: OCI-P5x (papillary serous) and OCI-C5x (clear cell)
Reagent: siRNA pool against human genes, 1.25 pmol siRNA per well
Duration: 72 h or 96 h, depending on the cell culture
Treatment: rucaparib 20 µM (about IC30) or vehicle, present until read-out
Rucaparib or vehicle: Vehicle
Cell line: OCI-P5x (serous)
Measurement: 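Luminescent ATP-based viability assay read 72 or 96 h after transfection, depending on culture, given as normalised percent viability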
Scale: viability, normalised: higher = more viable cells remaining
Call rule: 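Active when normalised viability falls below 80 percent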
Calls: active = viability under 80%; inactive = viability 80% or more

gene	technical replicate	viability, normalised (%)	call
SETMAR	1	78.9	active
SETMAR	1	61.9	active
SETMAR	2	84.7	inactive
SETMAR	2	73	active
SETMAR	3	103	inactive
SETMAR	3	104	inactive
CLK3	1	85.5	inactive
CLK3	2	90.9	inactive
CLK3	3	90.9	inactive
MAGI1	1	86	inactive
MAGI1	2	76.3	active
MAGI1	3	64.9	active
CLK4	1	74	active
CLK4	2	71.6	active
CLK4	3	57.4	active
CLDN15	1	83.6	inactive
CLDN15	2	81.2	inactive
CLDN15	3	83.9	inactive
CENPO	1	81.2	inactive
CENPO	2	65.1	active
CENPO	3	75.5	active
CHIC1	1	58.2	active
CHIC1	2	57.1	active
CHIC1	3	80.1	inactive
RPA2	1	86.3	inactive
RPA2	2	68.4	active
RPA2	3	74.8	active
AMELX	1	54.7	active
AMELX	2	54.7	active
AMELX	3	58.7	active
NAP1L1	1	42.8	active
NAP1L1	2	48.4	active
NAP1L1	3	113	inactive
PCDHB5	1	68.3	active
PCDHB5	2	71.4	active
PCDHB5	3	87.3	inactive
PAXIP1	1	88.3	inactive
PAXIP1	2	80.5	inactive
PAXIP1	3	94.3	inactive

Records listed so far whose target name starts with S or s:
gene	technical replicate	viability, normalised (%)	call
SETMAR	1	78.9	active
SETMAR	1	61.9	active
SETMAR	2	84.7	inactive
SETMAR	2	73	active
SETMAR	3	103	inactive
SETMAR	3	104	inactive
